Measured values published in PubChem BioAssay AID330 (DTP/NCI, 2004).
The list is a part of this screen's results and no random one: it is rich in T/C values a quarter to a half above the control, in often repeated tests (any T/C) and in doses without a T/C. Other doses and runs of a compound stand elsewhere. T/C is the treated group as % of the vehicle group. Some entries give survivors of the animals treated and no T/C: the source files T/C as zero there, which appears to mark a toxic dose or a test without result, not a measured value. Some doses without a T/C left all or most animals alive at the check, yet need not have been tolerated: survival well below the control is almost never listed, so the zero probably covers shortened survival too. Counts of survivors are from the toxicity check (mostly the fifth day) where no day follows; animals may have died later. Schedules are NCI's codes, read here as Q, the interval in days (D) or hours (H), X, the number of doses. Some entries were tested several times; the results are listed from low to high. Where survival is the endpoint, this PubChem deposit counts one and a half times the control or more as active, and values a quarter to a half above the control carry no call in these data; other NCI protocols may use other cut-offs. Some T/C values are followed by the survivors on the day toxicity was checked, most often the fifth; without a count, all were alive then.

Test system: P388 leukemia ip, CD2F1 mice, survival T/C
Assay: NCI In Vivo Anticancer Drug Screen. Data for tumor model P388 Leukemia (intraperitoneal) in CD2F1 (CDF1) mice
Conditions: T/C endpoint: median survival time, higher T/C = longer survival
[1] = dose: 1.0 mg/kg/injection, schedule: Q01DX009 (ip), vehicle: Klucel (hydroxypropylcellulose) (HPC)
[2] = dose: 200.0 mg/kg/injection, schedule: Q01DX009 (ip), vehicle: saline
[3] = dose: 400.0 mg/kg/injection, schedule: Q01DX009 (ip), vehicle: saline

Structure (SMILES): COc1ccc(CC2C(=O)NC(C)C(=O)N(C)C3C(=O)N(C)C(Cc4ccc(O)c(c4)Oc4ccc(cc4)C3O)C(=O)NC(C)C(=O)NC(C)C(=O)N2C)cc1 (stereo not given)
- T/C (dose: 0.06 mg/kg/injection, schedule: Q03HX024 (ip), vehicle: saline + alcohol): 133 % of control
- T/C (dose: 0.12 mg/kg/injection, schedule: Q01DX009 (ip), vehicle: Klucel (hydroxypropylcellulose) (HPC)): 135 % of control
- T/C (dose: 0.13 mg/kg/injection, schedule: Q03HX008 (ip), vehicle: saline + alcohol): 133 % of control
- T/C (dose: 0.13 mg/kg/injection, schedule: Q03HX016 (ip), vehicle: saline + alcohol): 131 % of control
- T/C (dose: 0.25 mg/kg/injection, schedule: Q01DX005 (ip), vehicle: other): 126 % of control
- T/C (dose: 0.25 mg/kg/injection, schedule: Q01DX009 (ip), vehicle: Klucel (hydroxypropylcellulose) (HPC)): 143 and 147 % of control
- T/C (dose: 0.25 mg/kg/injection, schedule: Q01DX009 (ip), vehicle: clinical formulation): 148 % of control
- T/C (dose: 0.25 mg/kg/injection, schedule: Q01DX009 (ip), vehicle: other): 143 % of control
- T/C (dose: 0.25 mg/kg/injection, schedule: Q01DX009 (ip), vehicle: water): 142 % of control
- T/C (dose: 0.25 mg/kg/injection, schedule: Q03HX008 (ip), vehicle: saline + alcohol): 141 % of control
- T/C (dose: 0.25 mg/kg/injection, schedule: Q03HX016 (ip), vehicle: saline + alcohol): 143 % of control
- T/C (dose: 0.5 mg/kg/injection, schedule: Q01DX005 (ip), vehicle: other): 141 % of control
- T/C (dose: 0.5 mg/kg/injection, schedule: Q01DX005 (ip), vehicle: saline): 132 % of control
- T/C (dose: 0.5 mg/kg/injection, schedule: Q01DX009 (ip), vehicle: Klucel (hydroxypropylcellulose) (HPC)): 148 % of control
- T/C (dose: 0.5 mg/kg/injection, schedule: Q01DX009 (ip), vehicle: other): 148 % of control
- T/C (dose: 0.5 mg/kg/injection, schedule: Q03HX008 (ip), vehicle: other): 138 % of control
- T/C (dose: 0.5 mg/kg/injection, schedule: Q03HX008 (ip), vehicle: saline + alcohol): 147 % of control
- T/C (dose: 0.5 mg/kg/injection, schedule: Q03HX016 (ip), vehicle: other): 144 % of control
- survivor count (dose: 0.5 mg/kg/injection, schedule: Q03HX024 (ip), vehicle: other): 10 of 10
- T/C (dose: 0.5 mg/kg/injection, schedule: Q04DX003 (ip), vehicle: other): 137 % of control
- T/C (dose: 1.0 mg/kg/injection, schedule: Q01DX005 (ip), vehicle: other): 149 % of control
- T/C (dose: 1.0 mg/kg/injection, schedule: Q01DX005 (iv), vehicle: saline): 142 % of control
- T/C [1]: 148 % of control
- survivor count [1]: 8 of 10
- T/C (dose: 1.0 mg/kg/injection, schedule: Q01DX009 (ip), vehicle: saline + alcohol): 130 % of control
- survivor count (dose: 1.0 mg/kg/injection, schedule: Q03HX008 (ip), vehicle: other): 2 of 10
- survivor count (dose: 1.0 mg/kg/injection, schedule: Q03HX008 (ip), vehicle: saline + alcohol): 6 of 10
- survivor count (dose: 1.0 mg/kg/injection, schedule: Q03HX016 (ip), vehicle: other): 2 of 10
- survivor count (dose: 1.0 mg/kg/injection, schedule: Q03HX016 (ip), vehicle: saline + alcohol): 5 of 10
- survivor count (dose: 1.0 mg/kg/injection, schedule: Q03HX024 (ip), vehicle: other): 2 of 10
- T/C (dose: 1.0 mg/kg/injection, schedule: Q04DX003 (ip), vehicle: other): 149 % of control
- T/C (dose: 1.0 mg/kg/injection, schedule: Q08DX002 (ip), vehicle: other): 131 % of control
- T/C (dose: 2.0 mg/kg/injection, schedule: Q01DX001 (ip), vehicle: other): 132 % of control
- survivor count (dose: 2.0 mg/kg/injection, schedule: Q01DX005 (iv), vehicle: other): 2 of 10
- survivor count (dose: 2.0 mg/kg/injection, schedule: Q01DX005 (iv), vehicle: saline): 3 of 6
- survivor count (dose: 2.0 mg/kg/injection, schedule: Q01DX009 (ip), vehicle: Klucel (hydroxypropylcellulose) (HPC)): 4 of 10
- survivor count (dose: 2.0 mg/kg/injection, schedule: Q01DX009 (ip), vehicle: saline + alcohol): 6 of 6
- survivor count (dose: 2.0 mg/kg/injection, schedule: Q01DX009 (sc), vehicle: other): 10 of 10
- survivor count (dose: 2.0 mg/kg/injection, schedule: Q03HX008 (ip), vehicle: other): 0 of 10
- survivor count (dose: 2.0 mg/kg/injection, schedule: Q03HX016 (ip), vehicle: other): 0 of 10
- survivor count (dose: 2.0 mg/kg/injection, schedule: Q03HX024 (ip), vehicle: other): 0 of 10
- T/C (dose: 2.0 mg/kg/injection, schedule: Q08DX002 (ip), vehicle: other): 147 % of control
- T/C (dose: 4.0 mg/kg/injection, schedule: Q01DX001 (ip), vehicle: other): 132 % of control
- T/C (dose: 4.0 mg/kg/injection, schedule: Q01DX005 (ip), vehicle: saline): 142 % of control [4 of 6 alive]
- survivor count (dose: 4.0 mg/kg/injection, schedule: Q01DX005 (iv), vehicle: other): 0 of 10
- survivor count (dose: 4.0 mg/kg/injection, schedule: Q01DX005 (iv), vehicle: saline): 0 of 6
- survivor count (dose: 4.0 mg/kg/injection, schedule: Q01DX009 (ip), vehicle: Klucel (hydroxypropylcellulose) (HPC)): 1 of 10 and 4 of 6
- survivor count (dose: 4.0 mg/kg/injection, schedule: Q01DX009 (ip), vehicle: clinical formulation): 10 of 10
- survivor count (dose: 4.0 mg/kg/injection, schedule: Q01DX009 (ip), vehicle: saline + alcohol): 1 of 6
- survivor count (dose: 4.0 mg/kg/injection, schedule: Q01DX009 (ip), vehicle: water): 0 of 5
- survivor count (dose: 4.0 mg/kg/injection, schedule: Q01DX009 (sc), vehicle: other): 10 of 10
- survivor count (dose: 4.0 mg/kg/injection, schedule: Q03HX008 (ip), vehicle: other): 0 of 10
- survivor count (dose: 4.0 mg/kg/injection, schedule: Q03HX016 (ip), vehicle: other): 0 of 10
- T/C (dose: 8.0 mg/kg/injection, schedule: Q01DX001 (ip), vehicle: other): 141 % of control
- T/C (dose: 8.0 mg/kg/injection, schedule: Q08DX002 (ip), vehicle: other): 144 % of control [9 of 10 alive]
- survivor count (dose: 16.0 mg/kg/injection, schedule: Q01DX001 (ip), vehicle: other): 2 of 10
- survivor count (dose: 16.0 mg/kg/injection, schedule: Q08DX002 (ip), vehicle: other): 1 of 10
- T/C (dose: 125.0 micrograms/kg/injection, schedule: Q01DX009 (ip), vehicle: saline with Tween-80): 132 % of control
- T/C (dose: 250.0 micrograms/kg/injection, schedule: Q01DX009 (ip), vehicle: saline with Tween-80): 146 % of control
- survivor count (dose: 4000.0 micrograms/kg/injection, schedule: Q01DX009 (ip), vehicle: saline with Tween-80): 1 of 10

Structure (SMILES): CC1CN1c1nc(N2CC2C)nc(N2CC2C)n1 (stereo not given)
- survivor count (dose: 6.25 mg/kg/injection, schedule: Q01DX009 (ip), vehicle: saline with Tween-80): 3 of 6
- survivor count (dose: 12.5 mg/kg/injection, schedule: Q01DX009 (ip), vehicle: saline with Tween-80): 0 of 6
- survivor count (dose: 25.0 mg/kg/injection, schedule: Q01DX009 (ip), vehicle: saline with Tween-80): 0 of 6

Structure (SMILES): O=S1(=O)OC(c2ccc(O)c(O)c2)(c2ccc(O)c(O)c2)c2ccccc21
- survivor count [2]: 5 of 6
- survivor count [3]: 0 of 6
- survivor count (dose: 600.0 mg/kg/injection, schedule: Q01DX009 (ip), vehicle: saline): 0 of 6

Structure (SMILES): COC1CCC(Sc2cccc[n+]2CC(C)=O)CC1OC (stereo not given)
- survivor count (dose: 200.0 mg/kg/injection, schedule: Q01DX005 (ip), vehicle: saline with Tween-80): 0 of 5

Structure (SMILES): CC1COS(=O)(=O)C1 (stereo not given)
- survivor count (dose: 100.0 mg/kg/injection, schedule: Q01DX009 (ip), vehicle: saline): 0 of 6
- survivor count [2]: 0 of 6
- survivor count [3]: 0 of 6
